The list does not hold the whole screen: it gathers tests that were run many times, whatever their T/C, doses with no T/C, and many T/C values between a quarter and a half above the control. Further doses and runs are listed elsewhere. T/C: endpoint of the treated group in % of that of the vehicle group. Some entries give survivors of the animals treated and no T/C: the source holds a T/C of zero for them, seemingly a mark for toxic or unscored doses. Some doses without a T/C left all or most animals alive at the check, yet need not have been tolerated: survival well below the control is almost never listed, so the zero probably covers shortened survival too. Counts of survivors are from the toxicity check (mostly the fifth day) where no day follows; animals may have died later. Schedules are NCI's codes, taken here to give the interval after Q, in days (D) or hours (H), and the number of doses after X. Some entries hold several experiments; the results are listed from low to high. Some schedules carry Z or #; the key to these is not given. For survival time, the PubChem record calls one and a half times the control and up active, and a quarter to a half above the control has no call in these data; cut-offs in other NCI protocols can differ. Some T/C values carry the count of animals alive at the toxicity check (mostly the fifth day); without a count, all were alive then.
Test system: L1210 leukemia ip in BDF1 mice, survival T/C
Experiment: NCI In Vivo Anticancer Drug Screen. Data for tumor model L1210 Leukemia (intraperitoneal) in B6D2F1 (BDF1) mice
Settings: T/C endpoint: mean survival time, higher T/C = longer survival

## N=C(N)SCc1c2ccccc2c(CSC(=N)N)c2ccccc12
dose: 40.0 mg/kg/injection, schedule: Q01DX006 (iv), vehicle: carboxymethylcellulose (CMC)
  T/C: 125 % of control [5 of 6 alive]
dose: 40.0 mg/kg/injection, schedule: Q01DX006 (iv), vehicle: saline
  T/C: 125 % of control
dose: 40.0 mg/kg/injection, schedule: Q01DX Z (im), vehicle: carboxymethylcellulose (CMC)
  T/C: 142 % of control
dose: 40.0 mg/kg/injection, schedule: Q01DX Z (ip), vehicle: carboxymethylcellulose (CMC)
  T/C: 148 % of control
dose: 40.0 mg/kg/injection, schedule: Q08DX002 (ip), vehicle: saline
  T/C: 142 % of control
dose: 50.0 mg/kg/injection, schedule: Q01DX001 (ip), vehicle: carboxymethylcellulose (CMC)
  T/C: 126 % of control
dose: 50.0 mg/kg/injection, schedule: Q01DX005 (ip), vehicle: carboxymethylcellulose (CMC)
  T/C: 135 % of control
dose: 50.0 mg/kg/injection, schedule: Q01DX009 (ip), vehicle: carboxymethylcellulose (CMC)
  T/C: 135 % of control
dose: 50.0 mg/kg/injection, schedule: Q01DX009 (ip), vehicle: clinical formulation
  survivor count: 0 of 6
dose: 50.0 mg/kg/injection, schedule: Q01DX015 (ip), vehicle: clinical formulation
  survivor count: 0 of 6
dose: 50.0 mg/kg/injection, schedule: Q01DX017 (ip), vehicle: carboxymethylcellulose (CMC)
  T/C: 141 % of control
dose: 50.0 mg/kg/injection, schedule: Q03HX040 (ip), vehicle: carboxymethylcellulose (CMC)
  survivor count: 8 of 8
dose: 50.0 mg/kg/injection, schedule: Q04DX003 (ip), vehicle: carboxymethylcellulose (CMC)
  T/C: 135 % of control
dose: 50.0 mg/kg/injection, schedule: Q07DX Z (ip), vehicle: saline
  T/C: 134 % of control
dose: 50.0 mg/kg/injection, schedule: Q#A X002 (ip), vehicle: saline
  T/C: 138 % of control
dose: 60.0 mg/kg/injection, schedule: Q03DX006 (ip), vehicle: carboxymethylcellulose (CMC)
  T/C: 135 and 144 % of control
dose: 60.0 mg/kg/injection, schedule: Q08DX002 (ip), vehicle: clinical formulation
  survivor count: 0 of 6
dose: 60.0 mg/kg/injection, schedule: Q08DX002 (ip), vehicle: saline
  T/C: 137 and 142 % of control
dose: 65.0 mg/kg/injection, schedule: Q## X008 (ip), vehicle: carboxymethylcellulose (CMC)
  survivor count: 1 of 10
dose: 70.0 mg/kg/injection, schedule: Q01DX001 (ip), vehicle: carboxymethylcellulose (CMC)
  T/C: 143 % of control
dose: 70.0 mg/kg/injection, schedule: Q07DX003 (ip), vehicle: carboxymethylcellulose (CMC)
  T/C: 132 and 144 % of control
dose: 75.0 mg/kg/injection, schedule: Q03DX Z (ip), vehicle: saline
  T/C: 144 % of control
dose: 80.0 mg/kg/injection, schedule: Q01DX006 (iv), vehicle: carboxymethylcellulose (CMC)
  T/C: 135 % of control [4 of 6 alive]
dose: 80.0 mg/kg/injection, schedule: Q01DX006 (iv), vehicle: saline
  T/C: 133 % of control [5 of 6 alive]
dose: 80.0 mg/kg/injection, schedule: Q01DX Z (im), vehicle: carboxymethylcellulose (CMC)
  T/C: 126 % of control
dose: 80.0 mg/kg/injection, schedule: Q01DX Z (ip), vehicle: carboxymethylcellulose (CMC)
  T/C: 139 % of control
dose: 80.0 mg/kg/injection, schedule: Q#A X Z (ip), vehicle: carboxymethylcellulose (CMC)
  T/C: 126 % of control
dose: 82.0 mg/kg/injection, schedule: Q01DX Z (ip), vehicle: saline
  survivor count: 6 of 6
dose: 90.0 mg/kg/injection, schedule: Q08DX002 (ip), vehicle: clinical formulation
  survivor count: 0 of 6
dose: 90.0 mg/kg/injection, schedule: Q08DX002 (ip), vehicle: saline
  T/C: 129 % of control
dose: 100.0 mg/kg/injection, schedule: Q01DX001 (ip), vehicle: carboxymethylcellulose (CMC)
  T/C: 111, 123, 131, 230 % of control
dose: 100.0 mg/kg/injection, schedule: Q01DX005 (ip), vehicle: carboxymethylcellulose (CMC)
  T/C: 148 % of control
dose: 100.0 mg/kg/injection, schedule: Q01DX009 (ip), vehicle: carboxymethylcellulose (CMC)
  T/C: 143 % of control
dose: 100.0 mg/kg/injection, schedule: Q01DX009 (ip), vehicle: saline
  T/C: 129 % of control
dose: 100.0 mg/kg/injection, schedule: Q01DX015 (ip), vehicle: clinical formulation
  survivor count: 0 of 6
dose: 100.0 mg/kg/injection, schedule: Q01DX017 (ip), vehicle: carboxymethylcellulose (CMC)
  T/C: 135 % of control
dose: 100.0 mg/kg/injection, schedule: Q03HX008 (ip), vehicle: carboxymethylcellulose (CMC)
  survivor count: 10 of 10 and 8 of 8
dose: 100.0 mg/kg/injection, schedule: Q03HX008 (ip), vehicle: saline
  survivor count: 10 of 10
dose: 100.0 mg/kg/injection, schedule: Q03HX016 (ip), vehicle: carboxymethylcellulose (CMC)
  survivor count: 7 of 10
dose: 100.0 mg/kg/injection, schedule: Q03HX016 (ip), vehicle: saline
  survivor count: 9 of 10
dose: 100.0 mg/kg/injection, schedule: Q04DX003 (ip), vehicle: carboxymethylcellulose (CMC)
  T/C: 132 % of control
dose: 100.0 mg/kg/injection, schedule: Q06HX004 (ip), vehicle: carboxymethylcellulose (CMC)
  survivor count: 9 of 10
dose: 100.0 mg/kg/injection, schedule: Q08DX002 (ip), vehicle: carboxymethylcellulose (CMC)
  T/C: 126 % of control
dose: 100.0 mg/kg/injection, schedule: Q08DX002 (ip), vehicle: saline
  T/C: 149 % of control
dose: 100.0 mg/kg/injection, schedule: Q## X009 (ip), vehicle: carboxymethylcellulose (CMC)
  T/C: 139 % of control
dose: 134.0 mg/kg/injection, schedule: Q08DX002 (ip), vehicle: clinical formulation
  survivor count: 0 of 6
dose: 140.0 mg/kg/injection, schedule: Q01DX001 (ip), vehicle: carboxymethylcellulose (CMC)
  T/C: 125 and 139 % of control
dose: 140.0 mg/kg/injection, schedule: Q07DX003 (ip), vehicle: carboxymethylcellulose (CMC)
  T/C: 143 % of control

— PubChem BioAssay AID248 (DTP/NCI, 2004)
